# Assay results from article PMC7195483.
# Legend:
# [1] = biological target: T1, Set1 fragment F1 (aa 1–236) fused to Gal4 BD (S. cerevisiae) (UniProt P38827); assay: two-hybrid; PJ69-4A carrying swd2Δ (lethality suppressed by Sen1 amino acids 1890–2092); HIS3 reporter
# T1 sequence: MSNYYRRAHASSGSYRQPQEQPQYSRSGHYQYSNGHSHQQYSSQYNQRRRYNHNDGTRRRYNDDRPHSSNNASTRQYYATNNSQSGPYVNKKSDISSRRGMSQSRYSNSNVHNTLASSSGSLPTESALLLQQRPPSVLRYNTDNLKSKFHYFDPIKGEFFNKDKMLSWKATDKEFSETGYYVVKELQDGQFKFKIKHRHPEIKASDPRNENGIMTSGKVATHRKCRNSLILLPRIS
# [2] = biological target: T2, full length Set1 fused to the Gal4 DNA binding domain (S. cerevisiae) (UniProt P38827); assay: as above
# T2 sequence: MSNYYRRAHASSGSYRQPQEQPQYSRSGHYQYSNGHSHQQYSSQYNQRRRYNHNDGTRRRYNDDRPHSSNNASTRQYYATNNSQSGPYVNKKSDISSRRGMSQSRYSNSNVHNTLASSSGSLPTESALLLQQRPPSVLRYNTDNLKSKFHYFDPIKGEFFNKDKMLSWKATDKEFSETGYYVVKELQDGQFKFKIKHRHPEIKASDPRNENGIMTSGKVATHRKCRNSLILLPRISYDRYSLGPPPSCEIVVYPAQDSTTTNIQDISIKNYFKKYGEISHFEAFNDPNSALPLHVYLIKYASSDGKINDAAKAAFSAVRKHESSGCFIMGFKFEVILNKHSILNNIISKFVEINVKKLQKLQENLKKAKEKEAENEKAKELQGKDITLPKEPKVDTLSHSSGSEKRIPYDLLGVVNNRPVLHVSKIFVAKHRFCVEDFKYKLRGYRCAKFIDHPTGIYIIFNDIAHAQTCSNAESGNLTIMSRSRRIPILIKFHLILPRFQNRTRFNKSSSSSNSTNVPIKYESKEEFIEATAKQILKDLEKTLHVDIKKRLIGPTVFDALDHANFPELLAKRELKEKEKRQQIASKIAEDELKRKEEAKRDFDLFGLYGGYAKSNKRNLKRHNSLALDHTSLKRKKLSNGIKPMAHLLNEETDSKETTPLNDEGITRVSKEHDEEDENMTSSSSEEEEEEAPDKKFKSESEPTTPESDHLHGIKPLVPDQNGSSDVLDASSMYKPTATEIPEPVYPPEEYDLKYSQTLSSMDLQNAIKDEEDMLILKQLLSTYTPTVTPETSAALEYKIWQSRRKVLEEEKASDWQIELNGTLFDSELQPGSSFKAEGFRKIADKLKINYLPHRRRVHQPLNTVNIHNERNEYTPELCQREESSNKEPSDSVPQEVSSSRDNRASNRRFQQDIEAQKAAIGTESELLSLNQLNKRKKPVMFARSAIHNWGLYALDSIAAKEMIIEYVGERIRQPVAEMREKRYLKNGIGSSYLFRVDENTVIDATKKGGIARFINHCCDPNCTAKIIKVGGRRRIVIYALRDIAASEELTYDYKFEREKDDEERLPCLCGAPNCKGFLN
# [3] = biological target: T3, Bre2 two-hybrid construct tested with the 14-CTD repeat construct (S. cerevisiae) (UniProt P43132); assay: two-hybrid; Gal4 BD fusions with Gal4 AD fusions in reporter strains PJ69-4A or CG1945; HIS3 and ADE2 reporters, scored after 2 or 3 days; 5 or 20 mM 3-AT for stringency; also in PJ69-4A with wild-type or F250A Swd2 (reduced in F250A)
# T3 sequence: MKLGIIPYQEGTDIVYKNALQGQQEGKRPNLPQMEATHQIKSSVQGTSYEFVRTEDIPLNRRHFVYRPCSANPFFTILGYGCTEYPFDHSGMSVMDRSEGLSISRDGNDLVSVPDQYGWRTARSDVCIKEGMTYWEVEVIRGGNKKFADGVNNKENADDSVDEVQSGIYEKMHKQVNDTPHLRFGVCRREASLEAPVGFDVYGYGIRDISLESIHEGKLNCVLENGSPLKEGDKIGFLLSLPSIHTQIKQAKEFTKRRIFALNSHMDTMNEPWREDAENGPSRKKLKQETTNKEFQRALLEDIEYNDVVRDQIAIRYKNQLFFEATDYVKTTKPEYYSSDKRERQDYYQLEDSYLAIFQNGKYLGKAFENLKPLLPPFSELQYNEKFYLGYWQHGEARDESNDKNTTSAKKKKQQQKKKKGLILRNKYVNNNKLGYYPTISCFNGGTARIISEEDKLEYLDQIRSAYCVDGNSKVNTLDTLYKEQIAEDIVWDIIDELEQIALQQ
# [4] = biological target: T4, Swd1 two-hybrid construct tested with the 14-CTD repeat construct (S. cerevisiae) (UniProt P39706); assay: as above
# T4 sequence: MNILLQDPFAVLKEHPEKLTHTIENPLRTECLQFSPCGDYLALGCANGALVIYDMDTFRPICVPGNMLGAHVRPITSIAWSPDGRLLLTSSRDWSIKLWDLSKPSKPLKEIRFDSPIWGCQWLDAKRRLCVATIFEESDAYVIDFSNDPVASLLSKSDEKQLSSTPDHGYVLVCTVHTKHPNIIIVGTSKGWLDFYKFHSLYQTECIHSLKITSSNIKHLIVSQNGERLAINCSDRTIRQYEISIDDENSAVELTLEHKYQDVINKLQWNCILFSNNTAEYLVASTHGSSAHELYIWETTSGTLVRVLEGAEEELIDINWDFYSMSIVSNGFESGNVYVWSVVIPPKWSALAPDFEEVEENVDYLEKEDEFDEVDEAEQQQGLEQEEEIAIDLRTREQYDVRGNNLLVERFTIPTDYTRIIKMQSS
# [5] = biological target: T1, Set1 fragment F1 (aa 1–236) fused to Gal4 BD (S. cerevisiae); assay: as above
# [6] = biological target: T5, Sdc1 two-hybrid construct tested with the 14-CTD repeat construct (S. cerevisiae) (UniProt Q03323); assay: as above
# T5 sequence: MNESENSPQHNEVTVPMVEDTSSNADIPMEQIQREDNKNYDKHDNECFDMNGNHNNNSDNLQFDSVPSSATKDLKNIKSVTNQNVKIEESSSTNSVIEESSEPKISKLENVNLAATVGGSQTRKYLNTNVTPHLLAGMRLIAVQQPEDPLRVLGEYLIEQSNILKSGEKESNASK
# [7] = biological target: T6, Set1 fragment F4 (aa 770–945) fused to Gal4 BD (S. cerevisiae) (UniProt P38827); assay: as above
# T6 sequence: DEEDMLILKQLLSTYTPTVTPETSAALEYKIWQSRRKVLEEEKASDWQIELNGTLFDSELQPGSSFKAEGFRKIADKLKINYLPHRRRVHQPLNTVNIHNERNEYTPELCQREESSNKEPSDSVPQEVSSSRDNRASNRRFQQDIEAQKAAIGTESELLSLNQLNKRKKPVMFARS
# [8] = biological target: T2, full length Set1 fused to the Gal4 DNA binding domain (S. cerevisiae); assay: as above
# [9] = biological target: T7, Swd3 two-hybrid construct tested with the 14-CTD repeat construct (S. cerevisiae) (UniProt P38123); assay: as above
# T7 sequence: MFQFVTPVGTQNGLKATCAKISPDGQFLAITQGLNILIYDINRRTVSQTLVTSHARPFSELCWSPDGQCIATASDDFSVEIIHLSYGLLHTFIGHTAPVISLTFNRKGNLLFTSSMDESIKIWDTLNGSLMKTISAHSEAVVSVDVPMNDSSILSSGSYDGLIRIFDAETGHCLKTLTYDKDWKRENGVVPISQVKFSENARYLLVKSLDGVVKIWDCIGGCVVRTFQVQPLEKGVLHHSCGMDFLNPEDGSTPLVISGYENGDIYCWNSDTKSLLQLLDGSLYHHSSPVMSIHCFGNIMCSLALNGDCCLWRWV
# [10] = biological target: T8, Swd2 two-hybrid construct tested with the 14-CTD repeat construct (S. cerevisiae) (UniProt P36104); assay: as above
# T8 sequence: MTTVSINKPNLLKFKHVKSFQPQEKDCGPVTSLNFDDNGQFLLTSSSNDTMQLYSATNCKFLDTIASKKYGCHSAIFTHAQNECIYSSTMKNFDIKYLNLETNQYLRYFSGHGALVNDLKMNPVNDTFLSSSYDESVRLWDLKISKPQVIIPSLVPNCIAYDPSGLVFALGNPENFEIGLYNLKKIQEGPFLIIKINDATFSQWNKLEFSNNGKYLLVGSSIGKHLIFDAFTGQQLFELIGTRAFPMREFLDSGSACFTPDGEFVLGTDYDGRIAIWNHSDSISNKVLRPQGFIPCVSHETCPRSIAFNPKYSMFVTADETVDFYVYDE
# [11] = biological target: T9, Shg1 two-hybrid construct tested with the 14-CTD repeat construct (S. cerevisiae) (UniProt P38337); assay: as above
# T9 sequence: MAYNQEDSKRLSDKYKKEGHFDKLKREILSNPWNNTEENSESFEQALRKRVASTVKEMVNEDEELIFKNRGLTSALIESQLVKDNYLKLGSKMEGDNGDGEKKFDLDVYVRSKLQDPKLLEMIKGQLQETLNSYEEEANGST
# [12] = biological target: T10, Spp1 two-hybrid construct tested with the 14-CTD repeat construct (S. cerevisiae) (UniProt Q03012); assay: as above
# T10 sequence: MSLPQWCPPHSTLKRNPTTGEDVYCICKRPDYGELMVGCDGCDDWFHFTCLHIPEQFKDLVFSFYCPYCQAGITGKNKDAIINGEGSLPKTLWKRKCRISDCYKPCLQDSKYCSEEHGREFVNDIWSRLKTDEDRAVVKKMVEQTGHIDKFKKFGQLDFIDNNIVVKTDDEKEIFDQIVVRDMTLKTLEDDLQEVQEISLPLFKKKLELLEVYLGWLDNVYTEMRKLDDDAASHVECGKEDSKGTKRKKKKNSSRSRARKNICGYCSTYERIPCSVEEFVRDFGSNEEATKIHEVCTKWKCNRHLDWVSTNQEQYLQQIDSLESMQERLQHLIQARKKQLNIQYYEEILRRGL
# [13] = biological target: T11, Set1(1–200) fused to Gal4 BD (S. cerevisiae) (UniProt P38827); assay: as above
# T11 sequence: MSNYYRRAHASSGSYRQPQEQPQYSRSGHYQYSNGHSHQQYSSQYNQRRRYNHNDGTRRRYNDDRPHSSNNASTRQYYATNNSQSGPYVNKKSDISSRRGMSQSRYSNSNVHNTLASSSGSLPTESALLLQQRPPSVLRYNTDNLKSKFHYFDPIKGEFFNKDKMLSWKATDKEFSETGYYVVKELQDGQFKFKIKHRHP
# [14] = biological target: T2, full length Set1 fused to the Gal4 DNA binding domain (S. cerevisiae); assay: two-hybrid; genome-wide screen of a S. cerevisiae genomic library (Hybrigenics) with Gal4 BD–Set1 (pB66) as bait
substance,measurement,setting,value
14-CTD repeat fragment of Rpb1 fused to the Gal4 activation domain (S. cerevisiae) (domain or fragment),binding,[1],binds weakly
same,binding,[2],binds weakly
same,binding,[3],no binding
same,binding,[4],no binding
same,binding,[5],binds
same,binding,[6],no binding
same,binding,[7],no binding
same,binding,[8],binds
same,binding,[9],no binding
same,binding,[10],no binding
same,binding,[11],no binding
same,binding,[12],no binding
same,binding,[13],binds
same,binding,[14],binds

# Results are given in words; binding and its absence hold for the method and conditions named. For some assays here: Binding calls can cover weak binding; strength is not graded here. For some assays here: Where a sequence is shown, tags or fusion partners need not be part of it.
